Test results taken from ChEMBL document CHEMBL3286171 (Eur J Med Chem, 2014).

Assays:
[1] = Apparent permeability in MDCK cells; conditions: dog
[2] = Permeability in human Caco2 cells; conditions: Caco-2
[3] = Effective permeability across human intestinal membrane by Ussing chamber technique

SMILES: COc1cc2c(cc1OC)C(=O)C(CC1CCN(Cc3ccccc3)CC1)C2 (stereo not drawn) [DONEPEZIL]
- Papp [1]: 30.6 ×10⁻⁶ cm/s
- Papp [2]: 5.55 ×10⁻⁶ cm/s
- Papp [3]: 669 ×10⁻⁶ cm/s
